The values below come from publication PMC8497546.

Amino acid sequences for entries named in this document (tags omitted). A change or cut given only in a name is not applied to a line headed by its entry.
UniProt Q9Y397: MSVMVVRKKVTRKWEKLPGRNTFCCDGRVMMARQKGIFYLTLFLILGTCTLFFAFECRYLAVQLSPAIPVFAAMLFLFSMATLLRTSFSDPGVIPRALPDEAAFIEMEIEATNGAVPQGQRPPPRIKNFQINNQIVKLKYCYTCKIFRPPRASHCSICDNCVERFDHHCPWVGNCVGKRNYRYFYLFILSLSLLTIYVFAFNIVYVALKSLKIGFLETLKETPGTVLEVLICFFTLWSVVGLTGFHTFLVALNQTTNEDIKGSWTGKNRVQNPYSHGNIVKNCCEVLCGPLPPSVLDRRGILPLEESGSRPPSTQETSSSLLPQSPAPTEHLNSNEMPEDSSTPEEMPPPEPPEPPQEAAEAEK
UniProt P11166: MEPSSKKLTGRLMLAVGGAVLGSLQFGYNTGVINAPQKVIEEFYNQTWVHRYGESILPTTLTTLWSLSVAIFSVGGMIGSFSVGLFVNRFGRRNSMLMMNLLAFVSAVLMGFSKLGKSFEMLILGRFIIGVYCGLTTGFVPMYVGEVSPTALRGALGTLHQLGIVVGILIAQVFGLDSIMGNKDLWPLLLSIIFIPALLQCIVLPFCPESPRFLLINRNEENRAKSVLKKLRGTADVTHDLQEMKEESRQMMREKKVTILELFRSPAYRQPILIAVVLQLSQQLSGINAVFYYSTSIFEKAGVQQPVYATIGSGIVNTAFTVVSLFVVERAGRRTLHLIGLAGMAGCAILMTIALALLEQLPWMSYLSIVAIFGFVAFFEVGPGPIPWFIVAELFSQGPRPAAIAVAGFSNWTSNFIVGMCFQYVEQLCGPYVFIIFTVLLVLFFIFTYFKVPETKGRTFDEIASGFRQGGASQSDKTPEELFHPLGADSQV

No constants are given. Whether binding was seen depends on the method and setting. A result given as binding can be weak or reduced; the word gives no strength.

In the assay the target is GST-tagged DHHC9 (human) (UniProt Q9Y397). In words: pull-down; GST pull-down: 200 ng His-tagged purified protein mixed with 100 ng GST fusion protein (or GST as control) in 50 mM Tris-HCl pH 7.5, 1% Triton X-100, 150 mM NaCl, 1 mM DTT, 0.5 mM EDTA for 1 h; glutathione agarose beads 30 min at 4 °C; immunoblot; both purified.

For “6×His-tagged GLUT1 (from UniProt P11166 1-492)”, the binding entry is listed as “binds”.
